Data on seven molecules can be found in the supplement of paper PMC10032668.

Amino acid sequences for entries named in this document (tags omitted).
INTS12, Q96CB8, UniProt Q96CB8, whole entry: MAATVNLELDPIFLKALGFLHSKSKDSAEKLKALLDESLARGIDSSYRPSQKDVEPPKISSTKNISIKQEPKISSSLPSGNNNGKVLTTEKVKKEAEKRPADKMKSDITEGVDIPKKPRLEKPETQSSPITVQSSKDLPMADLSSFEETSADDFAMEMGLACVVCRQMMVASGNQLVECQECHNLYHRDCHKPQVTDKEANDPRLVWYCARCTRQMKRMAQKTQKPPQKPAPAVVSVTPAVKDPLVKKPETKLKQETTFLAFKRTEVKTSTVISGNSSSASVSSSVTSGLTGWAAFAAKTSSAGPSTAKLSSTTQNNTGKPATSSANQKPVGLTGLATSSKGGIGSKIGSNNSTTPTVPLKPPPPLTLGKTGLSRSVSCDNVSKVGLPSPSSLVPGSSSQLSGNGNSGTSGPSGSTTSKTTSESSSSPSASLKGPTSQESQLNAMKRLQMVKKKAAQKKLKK
NMNAT1, Q9HAN9, UniProt Q9HAN9, whole entry: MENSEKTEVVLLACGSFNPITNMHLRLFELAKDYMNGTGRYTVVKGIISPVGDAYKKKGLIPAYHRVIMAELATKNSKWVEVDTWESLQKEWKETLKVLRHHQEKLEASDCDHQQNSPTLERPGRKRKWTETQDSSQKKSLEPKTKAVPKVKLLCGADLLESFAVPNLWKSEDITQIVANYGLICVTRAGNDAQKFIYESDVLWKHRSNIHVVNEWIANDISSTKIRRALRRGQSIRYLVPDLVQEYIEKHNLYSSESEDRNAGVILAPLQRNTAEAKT
TPM3, P06753, UniProt P06753, whole entry: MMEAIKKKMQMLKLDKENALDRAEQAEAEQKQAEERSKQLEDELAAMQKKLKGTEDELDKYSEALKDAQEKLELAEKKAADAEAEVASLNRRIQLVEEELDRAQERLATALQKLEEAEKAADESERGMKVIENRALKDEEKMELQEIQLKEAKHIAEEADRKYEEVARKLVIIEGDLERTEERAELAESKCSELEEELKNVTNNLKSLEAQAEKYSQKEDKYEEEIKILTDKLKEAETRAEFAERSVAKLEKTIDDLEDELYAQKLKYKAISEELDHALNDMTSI
TPR, P12270, UniProt P12270, whole entry: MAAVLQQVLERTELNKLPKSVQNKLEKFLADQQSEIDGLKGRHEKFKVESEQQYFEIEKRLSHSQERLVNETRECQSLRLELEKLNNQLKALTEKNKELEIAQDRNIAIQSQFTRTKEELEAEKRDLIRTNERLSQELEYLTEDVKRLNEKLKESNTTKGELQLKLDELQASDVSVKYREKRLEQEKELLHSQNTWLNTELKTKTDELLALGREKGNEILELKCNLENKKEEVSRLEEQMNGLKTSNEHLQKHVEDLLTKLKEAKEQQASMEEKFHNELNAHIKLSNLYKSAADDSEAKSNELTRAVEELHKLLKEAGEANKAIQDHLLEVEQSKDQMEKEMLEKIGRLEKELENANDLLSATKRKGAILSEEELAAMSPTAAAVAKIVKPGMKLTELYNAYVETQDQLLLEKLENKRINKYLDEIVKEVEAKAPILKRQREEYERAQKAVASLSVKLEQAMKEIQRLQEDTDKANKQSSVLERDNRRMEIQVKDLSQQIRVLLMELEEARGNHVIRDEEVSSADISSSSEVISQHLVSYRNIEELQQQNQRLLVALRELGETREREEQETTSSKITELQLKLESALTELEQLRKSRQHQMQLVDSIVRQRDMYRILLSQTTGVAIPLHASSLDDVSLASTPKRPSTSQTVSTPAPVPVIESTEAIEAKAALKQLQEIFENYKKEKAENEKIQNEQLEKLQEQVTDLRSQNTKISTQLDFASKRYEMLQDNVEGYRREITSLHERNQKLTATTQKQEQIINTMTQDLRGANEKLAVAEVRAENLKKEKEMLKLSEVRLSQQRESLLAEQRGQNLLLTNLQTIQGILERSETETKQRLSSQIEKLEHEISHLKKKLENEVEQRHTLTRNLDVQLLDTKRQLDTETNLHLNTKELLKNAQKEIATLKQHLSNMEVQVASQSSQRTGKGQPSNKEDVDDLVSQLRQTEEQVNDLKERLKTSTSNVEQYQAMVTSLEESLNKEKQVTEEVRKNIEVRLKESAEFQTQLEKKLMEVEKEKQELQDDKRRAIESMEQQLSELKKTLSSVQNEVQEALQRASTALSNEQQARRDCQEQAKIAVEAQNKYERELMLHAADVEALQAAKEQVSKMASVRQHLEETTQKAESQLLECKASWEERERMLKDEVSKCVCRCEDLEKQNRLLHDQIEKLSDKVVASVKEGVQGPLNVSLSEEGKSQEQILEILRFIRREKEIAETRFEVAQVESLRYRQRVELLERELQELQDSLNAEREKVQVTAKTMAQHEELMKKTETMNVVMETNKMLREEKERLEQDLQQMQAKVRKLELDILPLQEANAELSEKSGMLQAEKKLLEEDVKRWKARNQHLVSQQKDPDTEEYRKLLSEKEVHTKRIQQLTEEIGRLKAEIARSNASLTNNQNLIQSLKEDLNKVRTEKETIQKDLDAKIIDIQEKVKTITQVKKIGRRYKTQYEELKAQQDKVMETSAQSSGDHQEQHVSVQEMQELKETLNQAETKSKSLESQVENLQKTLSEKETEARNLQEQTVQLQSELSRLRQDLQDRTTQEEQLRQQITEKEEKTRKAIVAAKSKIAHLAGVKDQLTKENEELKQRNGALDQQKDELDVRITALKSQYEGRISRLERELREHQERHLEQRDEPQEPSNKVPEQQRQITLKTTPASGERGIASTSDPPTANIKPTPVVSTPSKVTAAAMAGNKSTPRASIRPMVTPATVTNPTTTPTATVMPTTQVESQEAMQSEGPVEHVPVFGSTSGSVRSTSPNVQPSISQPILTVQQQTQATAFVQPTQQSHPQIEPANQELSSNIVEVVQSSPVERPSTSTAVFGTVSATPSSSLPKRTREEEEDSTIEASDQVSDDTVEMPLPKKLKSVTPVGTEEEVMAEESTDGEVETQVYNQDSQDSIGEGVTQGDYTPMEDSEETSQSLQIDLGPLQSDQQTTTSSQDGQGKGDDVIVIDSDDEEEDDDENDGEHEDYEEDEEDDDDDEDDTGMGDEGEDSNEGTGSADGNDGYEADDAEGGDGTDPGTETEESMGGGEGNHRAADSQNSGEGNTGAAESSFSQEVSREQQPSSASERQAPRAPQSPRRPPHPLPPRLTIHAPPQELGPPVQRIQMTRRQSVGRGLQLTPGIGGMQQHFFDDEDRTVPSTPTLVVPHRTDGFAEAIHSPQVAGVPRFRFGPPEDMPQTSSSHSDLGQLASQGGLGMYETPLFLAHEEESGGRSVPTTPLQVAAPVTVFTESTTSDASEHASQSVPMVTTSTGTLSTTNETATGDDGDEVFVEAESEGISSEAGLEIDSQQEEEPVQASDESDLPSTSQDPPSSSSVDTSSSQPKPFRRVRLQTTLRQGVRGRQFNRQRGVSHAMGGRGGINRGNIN
YBX3, P16989, UniProt P16989, whole entry: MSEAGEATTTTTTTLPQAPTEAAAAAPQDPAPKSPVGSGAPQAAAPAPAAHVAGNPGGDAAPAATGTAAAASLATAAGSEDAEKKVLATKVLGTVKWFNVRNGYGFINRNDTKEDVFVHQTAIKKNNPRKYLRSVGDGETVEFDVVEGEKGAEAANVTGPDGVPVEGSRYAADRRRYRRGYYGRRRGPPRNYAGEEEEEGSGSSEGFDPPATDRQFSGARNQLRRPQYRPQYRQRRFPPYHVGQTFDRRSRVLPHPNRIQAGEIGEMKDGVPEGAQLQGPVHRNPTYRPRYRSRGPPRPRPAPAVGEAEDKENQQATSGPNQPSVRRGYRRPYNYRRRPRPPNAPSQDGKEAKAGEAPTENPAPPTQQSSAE
HDAC2, Q92769, UniProt Q92769, whole entry: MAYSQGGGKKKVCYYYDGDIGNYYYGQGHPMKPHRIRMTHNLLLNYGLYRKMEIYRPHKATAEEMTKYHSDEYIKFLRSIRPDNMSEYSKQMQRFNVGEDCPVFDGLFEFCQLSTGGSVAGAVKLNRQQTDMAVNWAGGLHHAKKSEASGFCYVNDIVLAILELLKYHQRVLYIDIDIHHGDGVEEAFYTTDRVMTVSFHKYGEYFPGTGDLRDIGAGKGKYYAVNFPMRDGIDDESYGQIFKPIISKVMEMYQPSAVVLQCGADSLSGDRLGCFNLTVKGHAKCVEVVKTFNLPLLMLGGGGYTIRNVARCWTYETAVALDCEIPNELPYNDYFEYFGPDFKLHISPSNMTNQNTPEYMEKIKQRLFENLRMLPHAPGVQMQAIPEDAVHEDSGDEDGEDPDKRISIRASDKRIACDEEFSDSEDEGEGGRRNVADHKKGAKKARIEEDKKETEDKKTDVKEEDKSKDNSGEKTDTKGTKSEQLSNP
SRSF9, Q13242, UniProt Q13242, whole entry: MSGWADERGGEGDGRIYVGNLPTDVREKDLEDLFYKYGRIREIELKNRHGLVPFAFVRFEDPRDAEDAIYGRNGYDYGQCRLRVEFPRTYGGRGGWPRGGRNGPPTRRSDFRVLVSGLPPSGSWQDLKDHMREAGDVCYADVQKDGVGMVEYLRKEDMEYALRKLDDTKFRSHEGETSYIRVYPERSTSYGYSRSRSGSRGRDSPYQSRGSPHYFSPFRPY
TUBB2B, Q9BVA1, UniProt Q9BVA1, whole entry: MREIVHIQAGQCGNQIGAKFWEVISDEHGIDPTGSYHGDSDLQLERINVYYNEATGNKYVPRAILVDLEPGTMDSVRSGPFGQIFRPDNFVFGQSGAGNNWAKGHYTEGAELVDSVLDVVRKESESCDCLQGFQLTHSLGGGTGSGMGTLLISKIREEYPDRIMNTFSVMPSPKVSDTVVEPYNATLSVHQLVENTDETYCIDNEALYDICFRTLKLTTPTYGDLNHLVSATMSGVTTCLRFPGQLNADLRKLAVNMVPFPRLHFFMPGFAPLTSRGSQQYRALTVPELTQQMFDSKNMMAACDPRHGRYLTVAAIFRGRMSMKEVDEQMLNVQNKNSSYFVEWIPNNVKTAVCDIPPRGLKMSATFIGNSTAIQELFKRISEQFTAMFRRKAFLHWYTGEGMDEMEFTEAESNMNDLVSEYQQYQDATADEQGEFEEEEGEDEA
RFC3, P40938, UniProt P40938, whole entry: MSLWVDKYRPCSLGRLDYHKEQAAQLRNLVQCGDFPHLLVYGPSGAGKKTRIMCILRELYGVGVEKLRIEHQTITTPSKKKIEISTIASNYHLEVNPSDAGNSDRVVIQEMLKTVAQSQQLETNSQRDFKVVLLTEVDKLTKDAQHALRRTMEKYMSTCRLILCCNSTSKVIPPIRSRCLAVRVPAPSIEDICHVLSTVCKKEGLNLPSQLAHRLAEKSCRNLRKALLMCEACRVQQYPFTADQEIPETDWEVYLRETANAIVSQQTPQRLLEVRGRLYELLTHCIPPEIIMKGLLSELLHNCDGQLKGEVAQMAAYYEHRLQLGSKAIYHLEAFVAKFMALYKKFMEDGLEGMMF

This is one part of the list. Only hits are listed; about a third recur on repeated control peptides.

Common to all, as to experiment: PRISMA enrichment of interactor (LFQ) in peptide spot vs all other peptide spots (log2 fold change); higher = stronger / more specific binding of the interactor to the peptide
Experiment [1] concerns the target ELP1, O95163. The method, then:
(§1)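 PRISMA: 15-aa overlapping tiles (offset 8 aa) of 60 microproteins, plus SOS1/GLUT1 control peptides, were spot-synthesized on cellulose membranes in triplicate. Membranes were incubated with benzonase-treated HEK293T lysate, and bound proteins were identified by LC-MS/MS with LFQ. Enrichment is the log2 fold change of each protein in one spot versus all other spots. Only interactors passing the significance cutoff are listed.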

In experiment [2] the target is IPO4, Q8TEX9. The procedure: as §1
Experiment [3] addresses MLEC, Q14165. The procedure: as §1
Experiment [4] has as its target MMS19, Q96T76. The procedure:
as §1

Experiment [5] addresses MRPL44, Q9H9J2. The procedure: as §1
The target in experiment [6] is TMX1, Q9H3N1. The method, then:
as §1

Experiment [7] has as its target UBR5, O95071. The method, then:
as §1

The target of experiment [8] is YTHDC1, Q96MU7. The method, then: as §1
The target in experiment [9] is FYTTD1, Q96QD9. The procedure: as §1
The target in experiment [10] is INTS12, Q96CB8. The method, then:
as §1

Experiment [11] addresses NMNAT1, Q9HAN9. The procedure: as §1
For experiment [12], the target named is OXSR1, O95747. The method, then: as §1
In experiment [13] the target is PDXDC1, Q6P996. The procedure: as §1
The target in experiment [14] is PPP6R1, Q9UPN7. The procedure:
as §1

Experiment [15] deals with RSL1D1, O76021. The method, then:
as §1

Experiment [16] concerns the target TPM3, P06753. The procedure: as §1
For experiment [17], the target named is TPR, P12270. The method, then: as §1
The target of experiment [18] is UBTF, P17480. The procedure:
as §1

The target of experiment [19] is YBX3, P16989. The procedure:
as §1

Experiment [20] concerns the target ZNF622, Q969S3. The method, then: as §1
Experiment [21] deals with FAM91A1, Q658Y4. The method, then: as §1
Experiment [22] has as its target GNPDA1, P46926. The procedure:
as §1

The target of experiment [23] is HDAC2, Q92769. The method, then: as §1
The target in experiment [24] is ERH, P84090. The procedure:
as §1

In experiment [25] the target is PPP6R3, Q5H9R7. The procedure: as §1
Experiment [26] addresses SRSF9, Q13242. The procedure:
as §1

Experiment [27] deals with TRMT112, Q9UI30. The procedure: as §1
In experiment [28] the target is VIRMA, Q69YN4. The procedure:
as §1

The target in experiment [29] is FGFR1, P11362. The method, then:
as §1

Experiment [30] concerns the target MRPL11, Q9Y3B7. The method, then: as §1
The target in experiment [31] is NOL7, Q9UMY1. The method, then:
as §1

In experiment [32] the target is NOP14, P78316. The procedure: as §1
The target of experiment [33] is TUBB2B, Q9BVA1. The procedure:
as §1

The target of experiment [34] is ZGRF1, Q86YA3. The procedure:
as §1

The target in experiment [35] is FAR1, Q8WVX9. The method, then:
as §1

The target of experiment [36] is RBM6, P78332. The procedure:
as §1

In experiment [37] the target is RFC3, P40938. The procedure: as §1
Experiment [38] addresses RTRAF, Q9Y224. The method, then: as §1
Experiment [39] addresses SPCS2, Q15005. The method, then:
as §1

The target of experiment [40] is TBRG4, Q969Z0. The method, then: as §1
Experiment [41] has as its target EIF2B2, P49770. The procedure: as §1
The target of experiment [42] is UMPS, P11172. The procedure:
as §1

In the case of VLCVHSVIFPLRKLR [PDZRN3-AS1], the “PRISMA enrichment of interactor (log2)” value in experiment [1] was found to be 8.89; in experiment [2], 6.42; in experiment [3] it was 6.55; in experiment [4] it was 5.15; in experiment [5] it was 4.92; in experiment [6] it was 7.15. Moreover, the “PRISMA enrichment of interactor (log2)” value in experiment [7] came to 6.97; in experiment [8], 6.

Turning to WKIEGTPLETIQKKL [NDUFB3], the “PRISMA enrichment of interactor (log2)” value is 7.58 in experiment [9]; 5.74 in experiment [10]; 4.77 in experiment [11]; 4 in experiment [12]; 3.99 in experiment [13]; 3.85 in experiment [14]. The “PRISMA enrichment of interactor (log2)” value in [15] was 6.39; in experiment [16], 5.39; in [17], 5.22; in experiment [18] it was 7.5; in experiment [19], 4.54; in [20], 4.47.

Take CFNTKRNRLREKLTL: the “PRISMA enrichment of interactor (log2)” value in experiment [21] came to 4.91; in [22] it was 5.17; in experiment [23], 3.75.

In the case of NILVRMVSEAGTGFC, the “PRISMA enrichment of interactor (log2)” value in [24] was determined as 6.14; in experiment [25], 4.37; in experiment [26] it was 5.41; in [27], 6.11; in experiment [28], 5.06.

On to MDSTVILSCVRSKN, for which the “PRISMA enrichment of interactor (log2)” value in experiment [29] worked out at 8.27; in [30] it was 4.19; in [31], 4.08; in experiment [32] it was 4.99; in experiment [33], 6.26; in experiment [34], 4.1.

Consider ARRGVRRWAAAAARS [PARL], for which the “PRISMA enrichment of interactor (log2)” value amounted to 5.38 in experiment [35]; 4.94 in experiment [36]; 6.24 in [37]; 6.55 in experiment [38]; 5.54 in experiment [39]; 4.3 in experiment [40].

For LLVGSGLGPFSGNIFLVT, the “PRISMA enrichment of interactor (log2)” value in experiment [41] came out at 5.13; in experiment [42], 4.67.
